Reference: paper PMC5520925
No constants are given. Whether binding was seen depends on the method and setting. In cells and extracts the contact can be indirect. Some entries that bind do so weakly or less than the wild type. For some of these results: Where a sequence is shown, tags or fusion partners need not be part of it. Blank lines part the entries; values can stand above or below the molecule they belong to.

By UniProt entry, the sequences of proteins in these tests, tags left out.
UniProt Q12834: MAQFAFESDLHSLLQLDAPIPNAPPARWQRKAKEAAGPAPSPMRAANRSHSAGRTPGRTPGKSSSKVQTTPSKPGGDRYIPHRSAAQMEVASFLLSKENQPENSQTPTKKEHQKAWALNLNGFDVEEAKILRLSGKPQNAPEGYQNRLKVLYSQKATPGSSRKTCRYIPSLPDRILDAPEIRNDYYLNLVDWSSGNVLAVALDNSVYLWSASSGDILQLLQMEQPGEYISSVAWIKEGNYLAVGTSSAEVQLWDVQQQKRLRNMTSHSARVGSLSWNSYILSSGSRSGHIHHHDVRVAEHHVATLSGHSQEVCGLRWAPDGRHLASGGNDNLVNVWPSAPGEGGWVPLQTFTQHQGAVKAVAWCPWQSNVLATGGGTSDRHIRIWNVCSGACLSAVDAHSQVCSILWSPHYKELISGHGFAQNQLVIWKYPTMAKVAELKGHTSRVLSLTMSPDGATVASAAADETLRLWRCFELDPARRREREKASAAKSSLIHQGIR

What was measured:
[1] = biological target: T1, SMAR1, endogenous (human (endogenous in MCF7)) (UniProt Q8N9N5); test: co-IP; endogenous proteins; MCF7 cell extracts immunoprecipitated with SMAR1 antibody or IgG, immunoblot; un-irradiated cells; also irradiated cells with ATM inhibitor KU55933 (interaction restored); IP buffer 50 mM Tris pH 7.4, 200 mM NaCl, 0.1% Triton X-100, 4 C
T1 sequence: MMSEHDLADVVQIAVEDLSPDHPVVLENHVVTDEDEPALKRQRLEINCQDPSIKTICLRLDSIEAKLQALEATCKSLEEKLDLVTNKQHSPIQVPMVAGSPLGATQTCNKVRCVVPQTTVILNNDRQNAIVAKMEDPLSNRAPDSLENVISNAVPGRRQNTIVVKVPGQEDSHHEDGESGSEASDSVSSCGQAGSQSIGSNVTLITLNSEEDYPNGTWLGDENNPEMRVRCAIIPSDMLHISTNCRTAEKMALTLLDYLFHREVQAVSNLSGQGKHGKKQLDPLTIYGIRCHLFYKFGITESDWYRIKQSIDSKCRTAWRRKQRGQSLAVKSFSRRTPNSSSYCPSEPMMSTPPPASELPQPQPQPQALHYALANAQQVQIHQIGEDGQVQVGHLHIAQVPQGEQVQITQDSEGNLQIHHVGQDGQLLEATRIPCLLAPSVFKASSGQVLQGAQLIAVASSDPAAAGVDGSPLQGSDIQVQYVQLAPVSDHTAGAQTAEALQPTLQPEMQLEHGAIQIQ

[2] = biological target: T1, SMAR1, endogenous (human (endogenous in MCF7)); test: condition: only after ionizing radiation (10 Gy) of the cells; co-IP; endogenous proteins; lysates of MCF7 cells irradiated with ionizing radiation (10 Gy), immunoprecipitated with SMAR1 or Cdc20 antibody, immunoblot
[3] = biological target: T2, FLAG-SMAR1 (scaffold matrix attachment region binding protein 1), wild type (UniProt Q8N9N5); test: co-IP; MCF7 cells co-transfected with HA-Cdc20 and FLAG-SMAR1 (WT, D1 or D2); in Figure 2c treated with 10 uM MG132 for 6 h; whole cell extracts immunoprecipitated with anti-FLAG (or reciprocally), immunoblot; IP buffer 50 mM Tris pH 7.4, 200 mM NaCl, 0.1% Triton X-100, 4 C
T2 sequence: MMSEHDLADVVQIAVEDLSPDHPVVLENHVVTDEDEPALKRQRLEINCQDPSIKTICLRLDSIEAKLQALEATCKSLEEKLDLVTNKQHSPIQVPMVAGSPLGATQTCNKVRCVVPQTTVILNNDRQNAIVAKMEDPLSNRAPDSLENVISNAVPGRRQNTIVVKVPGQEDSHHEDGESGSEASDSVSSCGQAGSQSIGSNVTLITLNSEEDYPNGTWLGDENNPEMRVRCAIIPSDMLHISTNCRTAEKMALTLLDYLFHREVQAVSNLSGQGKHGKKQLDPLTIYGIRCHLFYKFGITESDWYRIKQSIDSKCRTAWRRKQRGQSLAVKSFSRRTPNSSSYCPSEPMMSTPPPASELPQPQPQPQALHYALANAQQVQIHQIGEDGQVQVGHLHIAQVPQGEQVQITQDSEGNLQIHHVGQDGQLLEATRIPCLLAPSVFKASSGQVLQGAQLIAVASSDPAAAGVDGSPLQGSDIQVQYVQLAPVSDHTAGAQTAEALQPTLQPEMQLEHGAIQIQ

[4] = biological target: HA-Cdc20 (cell division cycle 20 homolog) (UniProt Q12834); test: as above

binding [1]: binds | binding [2]: no binding
Molecule: Cdc20, endogenous (from UniProt Q12834 1-499)

binding [3]: binds
Molecule: HA-Cdc20 (cell division cycle 20 homolog) (from UniProt Q12834 1-499)

binding [4]: binds
B1: FLAG-SMAR1 (scaffold matrix attachment region binding protein 1), wild type (protein, UniProt Q8N9N5 1-519)
chain: MMSEHDLADVVQIAVEDLSPDHPVVLENHVVTDEDEPALKRQRLEINCQDPSIKTICLRLDSIEAKLQALEATCKSLEEKLDLVTNKQHSPIQVPMVAGSPLGATQTCNKVRCVVPQTTVILNNDRQNAIVAKMEDPLSNRAPDSLENVISNAVPGRRQNTIVVKVPGQEDSHHEDGESGSEASDSVSSCGQAGSQSIGSNVTLITLNSEEDYPNGTWLGDENNPEMRVRCAIIPSDMLHISTNCRTAEKMALTLLDYLFHREVQAVSNLSGQGKHGKKQLDPLTIYGIRCHLFYKFGITESDWYRIKQSIDSKCRTAWRRKQRGQSLAVKSFSRRTPNSSSYCPSEPMMSTPPPASELPQPQPQPQALHYALANAQQVQIHQIGEDGQVQVGHLHIAQVPQGEQVQITQDSEGNLQIHHVGQDGQLLEATRIPCLLAPSVFKASSGQVLQGAQLIAVASSDPAAAGVDGSPLQGSDIQVQYVQLAPVSDHTAGAQTAEALQPTLQPEMQLEHGAIQIQ
